Experimental data from patent US20050209137A1 (published 2005).
These are yes or no findings as the source states them, for the method shown. Some results given as binding are weak or reduced against the parent protein; the word gives no strength.

The chains behind the UniProt entries cited, without tags or fusion partners. Residues count along the entry.
UniProt P41159, residues 22-167: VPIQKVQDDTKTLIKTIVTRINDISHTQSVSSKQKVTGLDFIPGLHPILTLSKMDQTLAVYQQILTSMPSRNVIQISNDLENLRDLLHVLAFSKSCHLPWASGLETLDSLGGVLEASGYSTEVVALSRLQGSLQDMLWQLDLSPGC
UniProt P48357, residues 22-839: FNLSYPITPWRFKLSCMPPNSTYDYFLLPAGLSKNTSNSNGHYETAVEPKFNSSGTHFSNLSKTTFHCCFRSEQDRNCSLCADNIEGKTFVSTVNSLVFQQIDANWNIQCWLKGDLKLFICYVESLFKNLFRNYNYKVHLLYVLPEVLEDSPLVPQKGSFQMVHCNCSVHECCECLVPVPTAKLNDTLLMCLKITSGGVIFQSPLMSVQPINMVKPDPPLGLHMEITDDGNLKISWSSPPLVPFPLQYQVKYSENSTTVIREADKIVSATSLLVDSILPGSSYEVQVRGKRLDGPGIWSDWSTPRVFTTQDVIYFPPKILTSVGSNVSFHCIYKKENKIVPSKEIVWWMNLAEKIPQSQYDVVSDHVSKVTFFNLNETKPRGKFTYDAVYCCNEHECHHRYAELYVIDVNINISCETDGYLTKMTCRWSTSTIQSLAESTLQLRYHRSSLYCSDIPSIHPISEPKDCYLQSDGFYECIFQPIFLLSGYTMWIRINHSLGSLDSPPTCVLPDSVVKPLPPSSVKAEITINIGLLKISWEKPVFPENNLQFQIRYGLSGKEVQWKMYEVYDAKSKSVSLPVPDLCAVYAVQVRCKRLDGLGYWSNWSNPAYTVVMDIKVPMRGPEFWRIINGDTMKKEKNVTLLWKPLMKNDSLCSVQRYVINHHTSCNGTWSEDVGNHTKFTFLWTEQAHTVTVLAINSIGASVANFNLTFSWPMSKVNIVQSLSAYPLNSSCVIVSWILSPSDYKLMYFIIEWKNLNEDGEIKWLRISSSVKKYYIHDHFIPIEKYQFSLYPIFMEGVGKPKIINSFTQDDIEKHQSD

T1: recombinant chicken leptin receptor binding domain (chLBD), amino acids 419-624 of the chicken leptin receptor (chicken)
T1 sequence: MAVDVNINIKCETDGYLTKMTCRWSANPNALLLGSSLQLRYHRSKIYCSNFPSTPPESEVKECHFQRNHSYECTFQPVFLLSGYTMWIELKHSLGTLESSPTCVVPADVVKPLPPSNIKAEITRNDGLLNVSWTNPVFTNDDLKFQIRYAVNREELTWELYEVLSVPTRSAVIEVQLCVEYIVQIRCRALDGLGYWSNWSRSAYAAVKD


Legend:
recombinant human leptin = recombinant human leptin (human, UniProt P41159 22-167); experiment: mixing of serum samples, overnight at 4 C, then free leptin RMEIA
[1] = target: T1, recombinant chicken leptin receptor binding domain (chLBD), amino acids 419-624 of the chicken leptin receptor (chicken); experiment: gel filtration of hormone:chLBD mixtures at various molar ratios, retention times printed over the peaks

Row | binding (recombinant human leptin) | binding [1] | Molecule
1 | binds | – | soluble leptin receptor, endogenous in human serum (from UniProt P48357 22-839)
2 | – | binds | chicken leptin (ligand, UniProt O42164 19-163, looked up, also called chLeptin; ChLeptin) VPCQIFQDDTKTLIKTIVTRINDISHTSVSAKQRVTGLDFIPGLHPILSLSKMDQTLAVYQQVLTSLPSQNVLQIANDLENLRDLLHLLAFSKSCSLPQTSGLQKPESLDGVLEASLYSTEVVALSRLQGSLQDILQQLDISPEC
